Results are given in words; binding and its absence hold for the method and conditions named. In cells and extracts the contact can be indirect. Some binding calls cover weakened binding; strength is not graded here.
Biological target: T1, FOXA2 (human (endogenous in ACHN and Caki-1)) (UniProt Q9Y261)
T1 sequence: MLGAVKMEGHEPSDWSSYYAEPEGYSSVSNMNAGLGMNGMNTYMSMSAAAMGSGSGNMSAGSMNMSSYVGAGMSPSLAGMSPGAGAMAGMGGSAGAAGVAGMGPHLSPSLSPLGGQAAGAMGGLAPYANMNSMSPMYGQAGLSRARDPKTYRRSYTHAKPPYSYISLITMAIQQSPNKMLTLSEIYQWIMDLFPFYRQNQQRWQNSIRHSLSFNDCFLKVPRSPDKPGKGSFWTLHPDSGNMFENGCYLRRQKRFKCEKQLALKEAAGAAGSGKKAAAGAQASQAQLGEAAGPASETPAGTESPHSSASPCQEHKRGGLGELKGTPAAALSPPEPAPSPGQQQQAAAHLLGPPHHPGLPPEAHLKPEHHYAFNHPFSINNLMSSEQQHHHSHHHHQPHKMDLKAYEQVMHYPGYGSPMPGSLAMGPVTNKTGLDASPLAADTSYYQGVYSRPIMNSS
Assay: co-IP; endogenous proteins in ACHN and Caki-1 lysates; anti-FOXA2 antibody or rabbit IgG for 4 h, then protein A/G beads for 2 h; washed three times with NETN (250 mM NaCl, 5 mM EDTA, 50 mM Tris-HCl, 0.5% NP-40); immunoblot

The chains behind the UniProt entries cited, without tags or fusion partners.
UniProt P40337: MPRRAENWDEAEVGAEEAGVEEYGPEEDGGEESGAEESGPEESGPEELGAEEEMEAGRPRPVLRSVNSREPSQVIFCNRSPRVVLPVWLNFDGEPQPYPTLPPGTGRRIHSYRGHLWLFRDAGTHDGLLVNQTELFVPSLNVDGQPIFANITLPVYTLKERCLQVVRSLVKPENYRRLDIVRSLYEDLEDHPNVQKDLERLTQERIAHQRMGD

For “VHL (von Hippel-Lindau) (from UniProt P40337 1-213)”, the binding was “binds”.

— PMC10801253
